Test results: publication PMC10163288
The other results are listed elsewhere or left out.

B1: il10ra_site1_sap_17_mot_HHH_b1_06789_af2_000000041_0001_1_20_H_._HHH_b1_04606_0001_0000200023_0000001_0_0001 (protein)
chain: SSSSDLEEIVEEAKREAEELAERGNPREAAWVLFRAIHEALENNDQEASHELWKLMMELARSSSS
B2: il10ra_site1_normal_mot_HHH_b2_00441_000000147_0001_1_18_H_._HHH_b2_02785_af2_0001_0000500023_0000002_0_af2pred_0001 (protein)
chain: SSSSDDEERSIRKWFKLARRAIELGDEELVKRAIELLEQLAKRLNDEEAEELVKELKELLESSSS
B3: il10ra_site1_sap_19_mot_HHH_b2_03220_af2_000000223_0001_23_40_H_._HHH_b1_07213_0001_0000100001_0000001_0_0001 (protein)
chain: SSSSDEEQEELLRLLRKLVELLLRGDKEEAERLARELLELAEELNDEKVVHVVEDLEKTVSSSSS
B4: il10ra_site1_sap_19_mot_HHH_b2_03220_af2_000000223_0001_23_40_H_._HHH_b1_04502_af2_0001_0000300009_0000002_0_0001 (protein)
chain: SSSSSDQELLRLLLEAFRLLLRGNPEEAKEVLEQAREIAKEAGDERALRMAEDLLAVIEGSSSSS
B5: il10ra_site1_sap_21_mot_HHH_b2_02694_000000228_0001_1_18_H_._HHH_b2_03245_af2_0001_0000400023_0000001_0_0001 (protein)
chain: SSSSDEEQRVVELILRVVRLRANGNPEEAEEVLKEAKELAEELGDEELRRYVEIVERFVRSSSSS
B6: il10ra_site1_normal_mot_HHH_b2_07569_000000265_0001_38_56_H_._HHH_b2_04128_af2_0001_0000500024_0000002_0 (protein)
chain: SSSSSDIAEIAQEALRLAIRLGDQETVQEIWELVKRYFEKGDPEIEEALEELLEELEKRGSSSSS
B7: il10ra_site1_sap_27_mot_HHH_b1_01821_000000158_0001_23_39_H_._HHH_b1_07193_af2_0001_0000400018_0000001_0_0001 (protein)
chain: SSSSDEERSRAAQIAIRVYALAHQLGDEEAARRVARLLAEYIAKGDPEYLEQIEEIEERLRSSSS
B8: il10ra_site1_normal_mot_7f9b3cf633cfd27bca007b62ade1be3b_0001_1_000000138_0001_17_32_H_._HHH_b1_05277_0001_0000100013_0000001_1 (protein)
chain: SSSSSSSSEETLRFLIFALERAETEEQRRAALLFLEHLAEELNDEEAEEVVEEFKRRHSSSSSSS
B9: il10ra_site1_sap_27_mot_HHH_b2_01776_000000118_0001_38_52_H_._HHH_b2_02060_0001_0000100005_0000001_0_0001 (protein)
chain: SSSSSDEEAEELYELSREALRIDDPEEAEEVVEEAFELAEKAGNRVLLKNIEYLLRDLRSSSSSS
B10: il10ra_site1_normal_mot_HHH_b1_06789_af2_000000041_0001_1_20_H_._HHH_b2_03285_0001_0001000073_0000002_0 (protein)
chain: SSSSTAEFLVRQALKAAKLALEAGDPEYAERALQIARLSAEQANNPELEELVREVEEELRKSSSS
B11: il10ra_site1_normal_mot_HHH_b2_07784_af2_000000103_0001_19_36_H_._HHH_b2_01656_af2_0001_0000100001_0000002_0 (protein)
chain: SSSSNEWYREVKELIEEAVKALRNGDEELLEELLKRLEELAEEFNTPSVEFAVRLLEQARGSSSS
B12: il10ra_site1_sap_12_mot_HHH_b1_06348_000000162_0001_1_15_H_._HHH_b2_03914_0001_0000100003_0000001_0_0001 (protein)
chain: SSSSDEAEEEAERLLEEAKEIDDPEEFMRLIMEALHLALRGGDEELFQEIWRVVKEWAKKSSSSS
B13: il10ra_site1_normal_mot_HHH_b2_04275_000000272_0001_20_36_H_._HHH_b1_03935_0001_0000100004_0000001_1 (protein)
chain: SSSSDEESQELYELSREVAELEHEGDEEEAEELLEEAIKLAQELGNFAFLVQLEYLLRLLSSSSS
B14: il10ra_site1_normal_mot_HHH_b2_00277_af2_000000172_0001_1_17_H_._HHH_b2_05434_0001_0000100004_0000001_0_af2pred_0001 (protein)
chain: SSSSDREEVERLLEEAKELAERGNPEEASYLLVRAFAIATKNNNEELKELVKEVAQEVAHSSSSS
B15: il10ra_site1_sap_21_mot_HHH_b1_06789_af2_000000041_0001_1_20_H_._HHH_b2_02564_0001_0000200010_0000001_0_0001_af2pred_0001 (protein)
chain: SSSSSEEAEEATELLREAVELARNGNPEEAEEVLREAEELAREANSLVLRVIIEFLLKRLSSSSS
B16: il10ra_site1_normal_mot_8756ee2cf497b5429c717dfc0c0bcfd6_0001_000000186_0001_1_13_H_._HHH_b1_01781_af2_0001_0000400022_0000001_0_af2pred_0001 (protein)
chain: SSSSSEEAQELVRLIREAIRLLNEGNPEEAEEVAREAEELAREGNNLNLLAQIEFLLRRIESSSS
B17: il10ra_site1_normal_mot_HHH_b1_06994_000000193_0001_40_55_H_._HHH_b2_01485_0001_0000400029_0000001_0 (protein)
chain: SSSSNEEELLEAVKRLIEQAIKNGDPRSARFLVEALEILARLNNDPEAEEEAERLEEEVKKSSSS
B18: il10ra_site1_normal_mot_HHH_b2_00475_000000107_0001_44_57_H_._HHH_b1_04904_0002_0000100004_0000002_0 (protein)
chain: SSSSDIIEVMYRLTRAVAEGDEEEIRELLEELEELLKKADEELEKYIEILLHFARSQLENASSSS
B19: il10ra_site1_sap_32_mot_HHH_b2_06311_000000217_0001_1_16_H_._HHH_b1_07065_0001_0000100002_0000001_1_0001_af2pred_0001 (protein)
chain: SSSSSREEEAIRLTLRFAEFLAEEGNPELAREFLEFAKELAEKTNDEEAEEEIKEVEERLSSSSS
B20: il10ra_site1_sap_24_mot_HHH_b1_01513_af2_000000021_0001_1_16_H_._HHH_b2_03132_0001_0000300007_0000001_0_0001 (protein)
chain: SSSSSDIEERVEELIEELEELLKNGDPERASHVAVEALRLIYRLGDAELLRELWELFASLSSSSS
B21: il10ra_site1_normal_mot_b26a303360aa2756ef5b79665ce52f45_0001_000000179_0001_1_11_H_._HHH_b2_05266_af2_0001_0000200008_0000001_0 (protein)
chain: SSSSSSDEENRRAIELVREALHIDDPEEAEKLLEEARELAEEVNNFVLLFSIRHLLRDLGSSSSS
B22: il10ra_site1_normal_mot_HHH_b2_00033_000000036_0001_41_54_H_._HHH_b1_00094_af2_0001_0000300009_0000001_0 (protein)
chain: SSSSSEEEEEIRELEEQAKKARERGDPEEAARLLAEAVRLAHKLGDPELFQELWELVKKIASSSS
B23: il10ra_site1_sap_7_mot_HHH_b2_01447_af2_000000258_0001_1_20_H_._HHH_b1_01074_0001_0000100001_0000001_0_0001 (protein)
chain: SSSSSDEEEVEELLRRAEELRERGDPEEANELLQRAVRIAYQARNEELLREIWEVVKRLGSSSSS
B24: il10ra_site1_normal_mot_HHH_b1_05937_af2_000000262_0001_20_37_H_._HHH_b1_00702_0001_0000200012_0000002_0 (protein)
chain: SSSSDREEVRELLEQLEEAYEEGDREKFLRLIIRALRLIFRIGDDELIRELHELVKRLASSSSSS
B25: il10ra_site1_sap_17_mot_HHH_b1_01226_000000225_0001_1_19_H_._HHH_b2_06475_0001_0000200007_0000001_1_0001_af2pred_0001 (protein)
chain: SSSSSDEERRILKLYFRAYHLKENGDPEEARKLLEEALELAEEINDEALKRLIKRMLELLSSSSS
B26: il10ra_site1_normal_mot_HHH_b1_06837_000000150_0001_20_37_H_._HHH_b1_05137_0001_0000100003_0000001_0 (protein)
chain: SSSSTEENREIYELLRRASELDFEGNPEEAKEVLEEAERLAEENNNLNLLAQVEFLLRLISSSSS
B27: il10ra_site1_sap_18_mot_HHH_b2_00984_000000042_0001_1_20_H_._HHH_b2_05460_af2_0001_0000100001_0000001_0_0001_af2pred_0001 (protein)
chain: SSSSSSEELRRLLEEASELLQRGNEEEAEEVLEEARKLAEEENDPITRLAIEYLLRLIGSSSSSS
B28: il10ra_site1_sap_14_mot_HHH_b1_05083_af2_000000148_0001_42_57_H_._HHH_b2_07711_0001_0000100002_0000001_0_0001 (protein)
chain: SSSSSDDRVKEAVERMLKAARQLEDEEYARLALRFALADARHTNDEELQEEVEELLEEISSSSSS
B29: il10ra_site1_sap_23_mot_0eddeacbb14b769e73e254714f31e2f9_0001_af2_000000203_0001_37_51_H_._HHH_b2_01631_0001_0000100002_0000001_0_0001_af2pred_0001 (protein)
chain: SSSSSEEEEEIEELIRQLEEALKRGDEEKALELFLRAAKLIKKLGNKELAQLLDETAIKALSSSS
B30: il10ra_site1_sap_27_mot_HHH_b2_02736_000000092_0001_22_38_H_._HHH_b1_02819_0001_0000100016_0000001_0_0001 (protein)
chain: SSSSSRELYEALRRLAQLDTEGDEEEFERLVEEAERLAEEEGDRIFLLVIRAMLELFRKFNSSSS
B31: il10ra_site1_normal_mot_HHH_b1_05056_000000217_0001_1_20_H_._HHH_b2_02752_0001_0000300028_0000001_0 (protein)
chain: SSSSDLEEELEELLRELEKLIEEGDREKFARLALEIIRLAFRTGDPEVLQKLWELVREFASSSSS
B32: il10ra_site1_normal_mot_49468d6c54d8157f7969f91124172a68_0001_af2_000000173_0001_37_51_H_._HHH_b2_06864_af2_0001_0000100002_0000002_0_af2pred_0001 (protein)
chain: SSSSEESERILTEAAQLIVELLREGDEEEAERVAEEARRLLEELNDPEAVHLLEALLHQQKSSSS
B33: il10ra_site1_normal_mot_HHH_b1_00137_000000000_0001_1_19_H_._HHH_b2_06740_0001_0000500012_0000001_0 (protein)
chain: SSSDDQELTRFAAEVVVKLYDELGLSREQFRVLQELALKLVAEGFSEEEIRRILEEVAEELSSSS
B34: il10ra_site1_sap_25_mot_HHH_b1_05088_af2_000000046_0001_20_36_H_._ef5a302c84959cb026c21f894a3b1351_0001_0001_0000700018_0000001_0_0001_af2pred_0001 (protein)
chain: SSSSSHAEKAVKLFIRMAERAIELGDPETARRILRFAEFLAEEANNPELLEEARELLEQLKSSSS
B35: il10ra_site1_normal_mot_HHH_b2_08186_000000021_0001_43_56_H_._HHH_b2_01076_0001_0000500056_0000002_0 (protein)
chain: SSSSSSSSEVEEEVQRLLEEARENPEHAQELLAEALRLAFQHSNEELLQEIWRVLRELSSSSSSS
B36: il10ra_site1_sap_20_mot_HHH_b2_03425_000000200_0001_22_39_H_._HHH_b1_07284_af2_0001_0000400022_0000001_0_0001 (protein)
chain: SSSSDETERVMELLEEVTELDQKGNPEEAREVLREALELAEELGNWALRAAAEHLERVINSSSSS
B37: il10ra_site1_sap_19_mot_HHH_b1_02397_af2_000000085_0001_39_57_H_._HHH_b1_07123_0001_0000100001_0000002_0_0001 (protein)
chain: SSSSDVEEYVKLSERFAKWLEEVGNPEAAKRILEAAASAAENAGNPELLEELERLLEELRSSSSS

Each binder was assayed against il10ra, Q13651 (assay: yeast display titration).

Apparent Kd, inactive:
B1 no binding seen
B2 no binding seen
B3 no binding seen
B4 no binding seen
B5 no binding seen
B6 no binding seen
B7 no binding seen
B8 no binding seen
B9 no binding seen
B10 no binding seen
B11 no binding seen
B12 no binding seen
B13 no binding seen
B14 no binding seen
B15 no binding seen
B16 no binding seen
B17 no binding seen
B18 no binding seen
B19 no binding seen
B20 no binding seen
B21 no binding seen
B22 no binding seen
B23 no binding seen
B24 no binding seen
B25 no binding seen
B26 no binding seen
B27 no binding seen
B28 no binding seen
B29 no binding seen
B30 no binding seen
B31 no binding seen
B32 no binding seen
B33 no binding seen
B34 no binding seen
B35 no binding seen
B36 no binding seen
B37 no binding seen

Not a retest: an excerpt of the list.
Apparent Kd, inactive:
B34 no binding seen
B35 no binding seen
